Test results from patent CN1618813A.
Results are given in words; binding and its absence hold for the method and conditions named. In cells and extracts the contact can be indirect. Some binding calls cover weakened binding; strength is not graded here. Where a sequence is shown, tags or fusion partners need not be part of it.

Amino acid sequences for entries named in this document (tags omitted). A change or cut given only in a name is not applied to a line headed by its entry.
UniProt P61201: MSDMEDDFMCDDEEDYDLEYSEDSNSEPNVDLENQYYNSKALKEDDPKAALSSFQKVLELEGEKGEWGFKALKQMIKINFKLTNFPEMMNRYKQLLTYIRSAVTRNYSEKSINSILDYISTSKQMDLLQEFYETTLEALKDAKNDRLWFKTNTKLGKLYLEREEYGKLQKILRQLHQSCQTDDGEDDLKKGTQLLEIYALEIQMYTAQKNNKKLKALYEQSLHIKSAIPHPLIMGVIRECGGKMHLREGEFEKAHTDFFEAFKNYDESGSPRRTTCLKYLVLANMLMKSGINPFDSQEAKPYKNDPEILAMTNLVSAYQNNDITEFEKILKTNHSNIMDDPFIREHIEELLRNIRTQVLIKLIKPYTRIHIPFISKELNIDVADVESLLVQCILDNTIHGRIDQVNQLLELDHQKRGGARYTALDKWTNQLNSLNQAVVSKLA

Biological target: 甲状腺素受体相互作用蛋白15 (thyroid receptor interacting protein 15, TRIP15) (human) (UniProt P61201)
Assay: in vitro precipitation (pull-down) of human TRIP15 protein by the GST-scFv fusion

binding: binds
B1: GST-抗TRIP15单链抗体的融合蛋白 (GST-fused anti-TRIP15 single-chain antibody) (scFv)
chain: EVQLLESGGGLVQPGGSLRLSCAASGFTFSSYAMSWVRQAPGKGLEWVSSISNDGLKTLYADSVKGRFTISRDNSKNTLYLQMNSLRAEDTAVYYCAKNTGSFDYWGQGTLVTVSSGGGGSGGGGSGGSAQDIQMTQSPSSLSASVGDRVTITCRASQSISSYLNWYQQKPGKAPKLLIYRASNLQSGVPSRFSGSGSGTDFTLTISSLQPEDFATYYCQQVLRRPATFGQGTKVEIKR
